{"source": "PubChem BioAssay AID504467", "about": "(National Center for Advancing Translational Sciences (NCATS), 2011)", "note": "Out of some 330,000 compounds screened, about 7,700 (2.3%) were called active. Inconclusive results, whose numbers are uncertain, are shown with a selection of clear calls. Calls come from the whole dose curve; as a rule, active = well fitted inhibition curve with a large enough effect; inconclusive = small, poorly fitted or top-dose-only effect, or effect the other way; inactive = flat fitted curve, though single readings scatter. A potency beside an inconclusive call is a rough fit, not a confirmed value. Potency is the fitted concentration of half-maximal effect."}
{"assay": "qHTS screen for small molecules that inhibit ELG1-dependent DNA repair in human embryonic kidney (HEK293T) cells expressing luciferase-tagged ELG1; note: nearly all actives have a fitted effect of over 55% in size", "conditions": "HEK293T ELG1-luciferase reporter, luminescence, 16 h, DNA damage induced by 5-fluorouridine; series mostly up to 46.1 µM", "method_in_brief": "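Overnight (16 hr) co-exposure of 2,000 cells/well to 5-fluorouridine and compound at 37 °C preceded detection. Luciferase was quantified via ONE-Glo luminescence; loss of signal denotes inhibition.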"}
{"smiles": "O=C(Nc1ccccc1)C1=C[C@@H](c2csc3ccccc23)C[C@@H](OCc2ccc(CO)cc2)O1", "Potency": "inconclusive: 16.4 µM [inhibitor, single point]"}
{"smiles": "CC1(C)Oc2ccc3ccc(=O)oc3c2C[C@H]1O", "Potency": "inactive"}
{"smiles": "Cc1onc(-c2c(F)cccc2Cl)c1C(=O)ONC(=O)c1ccco1", "Potency": "inactive"}
{"smiles": "O=C(NNC(=O)C1CC=CCC1)c1ccccc1Cl", "note": "(stereo not drawn)", "Potency": "inconclusive: 16.4 µM [activator, single point]"}
{"smiles": "Fc1cccc(C2NC(=S)NC3=C2N2CCC3CC2)c1", "note": "(stereo not drawn)", "Potency": "inconclusive: 25.9 µM [inhibitor, single point]"}
{"smiles": "CCOC(=O)c1cnc(-c2ccccc2O)nc1Cl", "Potency": "inconclusive: 29.1 µM [activator, single point]"}
{"smiles": "Cc1sc2nc(SCCN(C)C)n(-c3ccccc3)c(=O)c2c1-c1ccc(F)cc1", "Potency": "inactive"}
{"smiles": "COc1ccc2c(c1OC)C(=O)N1c3cccc(Cl)c3C(=O)OC21", "note": "(stereo not drawn)", "Potency": "inactive"}
{"smiles": "CN(C)CCNC(=O)C(=O)c1c(-c2ccccc2)cc2ccccn12", "Potency": "inactive"}
{"smiles": "CC(C)(C)N1CC2([N+](=O)[O-])CN(C(C)(C)C)CC([N+](=O)[O-])(C1)C2", "Potency": "inactive"}
{"smiles": "COc1ccccc1CCn1c(N)c(C#N)c2nc3ccccc3nc21", "Potency": "inconclusive: 20.6 µM [inhibitor, partial curve, poor fit]"}
{"smiles": "COc1cc(/C=N/NC(=O)c2ccncc2)ccc1OCc1cnc(Cl)s1", "Potency": "inconclusive: 25.9 µM [activator, single point]"}
{"smiles": "Cc1cc(NC(=O)c2ccc(Cl)cc2)no1", "Potency": "inconclusive: 16.4 µM [activator, partial curve]"}
{"smiles": "Cc1cc(C(=O)N(CCC#N)Cc2cccs2)no1", "Potency": "inactive"}
{"smiles": "CCOC(=O)CN1C(=O)C(Sc2n[nH]c(-c3ccc(O)cc3)n2)CCc2ccccc21", "note": "(stereo not drawn)", "Potency": "inconclusive: 29.1 µM [inhibitor, single point]"}
{"smiles": "COc1ccc(/C=C/c2c(-c3ccc(OC)cc3)sc3ccc(N4CCOCC4)cc23)cc1", "Potency": "inconclusive: 18.3 µM [activator, single point]"}
{"smiles": "Cc1nnc(NC(=O)CN2CCN(Cc3ccccc3)CC2)s1", "Potency": "inactive"}
{"smiles": "CC(=O)N(C1=C(N)C(=O)c2ccccc2C1=O)C(C)C", "Potency": "active: 23.1 µM"}
{"smiles": "C=CCOC(=O)C(C#N)c1nc2ccccc2nc1N1CCN(Cc2ccc3c(c2)OCO3)CC1", "note": "(stereo not drawn)", "Potency": "active: 16.4 µM"}
{"smiles": "Cc1cccc(-c2noc(CN(C(=O)CCc3ccccc3)C(C)C)n2)c1", "Potency": "inactive"}
{"smiles": "CCC(=O)N1N=C(c2ccccc2)CC1c1ccc([N+](=O)[O-])cc1", "note": "(stereo not drawn)", "Potency": "inactive"}
{"smiles": "COc1ccc(Cc2noc(-c3ccccc3)n2)cc1OC", "Potency": "inconclusive: 18.3 µM [inhibitor, single point]"}
{"smiles": "O=C(CCCCCn1c(=S)[nH]c2ccc(N3CCOCC3)cc2c1=O)NCc1ccccc1Cl", "Potency": "inconclusive: 6.51 µM [inhibitor, single point]"}
{"smiles": "Cc1ccc(Cl)cc1N1CCN(Cc2nnnn2C2CCCCC2)CC1", "Potency": "inactive"}
{"smiles": "COc1ccc(-c2ccc3c(c2)S(=O)(=O)c2cccc(C(=O)N4CCN(c5c(Cl)cncc5Cl)CC4)c2C3=O)cc1OC", "Potency": "inconclusive: 4.61 µM [inhibitor, full curve]"}
{"smiles": "COc1ccccc1Nc1nc(-c2sc(N)nc2C)cs1", "Potency": "inconclusive: 29.1 µM [activator, single point]"}
{"smiles": "CSc1nncn1/N=C/c1cc(Cl)ccc1F", "Potency": "inactive"}
{"smiles": "Clc1ccc2nc3c4ccccc4cnn3c2c1", "Potency": "inconclusive: 2.31 µM [activator, partial curve]"}
{"smiles": "N/C(Cc1ccc([N+](=O)[O-])cc1)=N\\OC(=O)c1ccccc1F", "Potency": "inconclusive: 25.9 µM [activator, single point]"}
{"smiles": "COc1ccc(-c2noc(N3CCC(C(=O)N(C)c4ccccc4)CC3)n2)cc1", "Potency": "inactive"}
{"smiles": "Cc1nn(Cc2ccccc2)c(Cl)c1/C=N/NC(=O)CNc1cccc(C(F)(F)F)c1", "Potency": "inconclusive: 25.9 µM [inhibitor, partial curve, poor fit]"}
{"smiles": "COc1ccccc1Nc1nnc(Cc2ccccc2)c(=O)[nH]1", "Potency": "inactive"}
{"smiles": "Cc1ccc(-c2cc(-c3c(C)nn(C)c(=O)c3N)[nH]n2)cc1", "Potency": "inconclusive: 20.6 µM [inhibitor, single point]"}
{"smiles": "O=[N+]([O-])c1cccc(/C=N/Nc2nc(N3CCCCC3)nc(N3CCCCC3)n2)c1", "Potency": "inactive"}
{"smiles": "COc1ccc(Oc2c(Cl)cnn(-c3ccc(F)cc3)c2=O)cc1", "Potency": "inconclusive: 20.6 µM [inhibitor, single point]"}
{"smiles": "O=C(CN1CCN(Cc2ccc(Cl)cc2)CC1)N/N=C/c1cccc(F)c1", "Potency": "inconclusive: 4.61 µM [inhibitor, partial curve, poor fit]"}
{"smiles": "O=c1cc(CCl)nc2sc3ccccc3n12", "Potency": "inactive"}
{"smiles": "CC1CCCCN1S(=O)(=O)CCNC(=O)c1ccccc1", "note": "(stereo not drawn)", "Potency": "inactive"}
{"smiles": "O=C(Nc1ccc2nccnc2c1)c1cnccn1", "Potency": "inconclusive: 20.6 µM [activator, partial curve]"}
{"smiles": "CCN1CCN(c2nc3ccccc3nc2C(C#N)C(=O)OC2CCCCC2)CC1", "note": "(stereo not drawn)", "Potency": "inactive"}
{"smiles": "O=C(O)CCCCN1C(=O)/C(=C\\c2ccc(OCc3ccccc3)c(OCc3ccccc3)c2)SC1=S", "Potency": "inactive"}
{"smiles": "O=C(c1ccc(F)cc1)N1CCCCC(Sc2nnnn2-c2ccccc2)C1=O", "note": "(stereo not drawn)", "Potency": "inconclusive: 0.651 µM [inhibitor, full curve]"}
{"smiles": "CN(C)/C=C1/N=C(c2ccccc2)OC1=O", "Potency": "inconclusive: 16.4 µM [activator, partial curve, poor fit]"}
{"smiles": "COc1cc(OC)c2c(-c3cccc(-c4sccc4C(C)=O)c3)cc(=O)oc2c1", "Potency": "inconclusive: 2.31 µM [inhibitor, partial curve, poor fit]"}
{"smiles": "CNc1ccc(C(=O)OCC(=O)NC(=O)NC2CCCC2)cc1[N+](=O)[O-]", "Potency": "inactive"}
{"smiles": "O=C1NCCc2c1[nH]c1c(Cl)ccc(Cl)c21", "Potency": "inconclusive: 16.4 µM [inhibitor, partial curve]"}
{"smiles": "Cc1ccc(S(=O)(=O)N2CCN(C(=O)CCOc3cc(C)ccc3C)CC2)cc1", "Potency": "inconclusive: 23.1 µM [inhibitor, partial curve, poor fit]"}
{"smiles": "CCOC(=O)C1(CCOc2ccccc2)CCN(Cc2cccn2-c2cccnc2)CC1", "Potency": "inconclusive: 29.1 µM [inhibitor, single point]"}
